2 substances from publication PMC6546395 can be followed below.

Protein sequences, listed by entry. Tags and fused reporters are not part of them. Lines headed by an entry give the natural chain unless they say otherwise; changes in a name come on top.
UniProt Q02732: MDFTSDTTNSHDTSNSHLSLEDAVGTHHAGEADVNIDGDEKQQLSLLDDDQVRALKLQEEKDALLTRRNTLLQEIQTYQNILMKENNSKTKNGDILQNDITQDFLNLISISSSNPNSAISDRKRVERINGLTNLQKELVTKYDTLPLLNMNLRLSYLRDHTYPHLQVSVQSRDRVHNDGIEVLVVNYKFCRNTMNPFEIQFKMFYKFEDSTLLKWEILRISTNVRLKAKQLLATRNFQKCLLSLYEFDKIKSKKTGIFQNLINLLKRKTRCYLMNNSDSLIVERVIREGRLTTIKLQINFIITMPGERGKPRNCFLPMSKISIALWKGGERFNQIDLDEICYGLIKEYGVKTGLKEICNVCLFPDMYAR

No constants are given. Whether binding was seen depends on the method and setting. Some results given as binding are weak or reduced against the parent protein; the word gives no strength.

Assay [1] concerns the target T1, Sli15/Ipl1 core chromosomal passenger complex (S. cerevisiae) (UniProt P38283+P38991).
T1 sequence 1: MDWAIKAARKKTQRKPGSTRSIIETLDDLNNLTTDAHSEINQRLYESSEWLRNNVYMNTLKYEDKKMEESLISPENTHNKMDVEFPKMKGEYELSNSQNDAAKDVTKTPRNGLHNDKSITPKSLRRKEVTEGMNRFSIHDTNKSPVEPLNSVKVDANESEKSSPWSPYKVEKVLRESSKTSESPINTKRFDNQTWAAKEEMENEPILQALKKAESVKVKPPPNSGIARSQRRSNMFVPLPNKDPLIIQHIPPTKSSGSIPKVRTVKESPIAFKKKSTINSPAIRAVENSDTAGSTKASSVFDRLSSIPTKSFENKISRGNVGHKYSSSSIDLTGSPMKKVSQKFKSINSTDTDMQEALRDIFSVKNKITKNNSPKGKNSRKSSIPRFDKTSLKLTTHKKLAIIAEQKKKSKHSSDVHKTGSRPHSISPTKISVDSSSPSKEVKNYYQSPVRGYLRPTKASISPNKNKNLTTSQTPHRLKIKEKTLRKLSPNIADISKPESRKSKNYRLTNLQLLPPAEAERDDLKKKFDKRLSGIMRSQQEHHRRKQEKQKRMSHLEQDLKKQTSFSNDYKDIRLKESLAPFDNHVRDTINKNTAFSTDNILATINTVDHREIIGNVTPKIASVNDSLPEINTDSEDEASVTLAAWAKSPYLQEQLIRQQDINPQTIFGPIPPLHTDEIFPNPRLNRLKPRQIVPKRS
T1 sequence 2: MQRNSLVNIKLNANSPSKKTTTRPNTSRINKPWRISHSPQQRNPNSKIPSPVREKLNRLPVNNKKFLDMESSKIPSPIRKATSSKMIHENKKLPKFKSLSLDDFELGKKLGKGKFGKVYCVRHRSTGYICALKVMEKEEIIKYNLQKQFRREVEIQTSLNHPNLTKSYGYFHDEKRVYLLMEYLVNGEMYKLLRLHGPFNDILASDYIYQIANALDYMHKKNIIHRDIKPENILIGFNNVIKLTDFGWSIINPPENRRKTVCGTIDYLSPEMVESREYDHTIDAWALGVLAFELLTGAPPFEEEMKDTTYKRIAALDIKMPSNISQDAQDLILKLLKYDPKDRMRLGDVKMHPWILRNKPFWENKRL
In words: pull-down; Sli15-2xStrep-HA-6xHis/Ipl1 immobilised on Strep-Tactin Superflow agarose, 2-fold molar excess of the partners; 50 mM NaH2PO4 pH 8, 120 mM NaCl, 5% glycerol, 4°C, 1 hr; SDS-PAGE and Coomassie; both purified.

A further assay deals with Mhf2 (S. cerevisiae) (UniProt Q3E829). Put plainly: co-purification of co-expressed subunits; subunits expressed together in E. coli (pETDuet-1 in BL21 (DE3); Ame1-6xHis/Okp1 as in Hornung et al., 2014); purified by the tag of one subunit (Ni-NTA or Strep-Tactin); Coomassie gel.

Consider “Ctf19ΔC/Mcm21 (from UniProt Q02732 1-269; Q06675 1-368) (complex)”, for which the binding result in assay [1] is reported as “no binding (tested: 2-fold molar excess)”. In the case of Mhf1 (from UniProt Q3E835 1-90), the binding result in the assay with Mhf2 (S. cerevisiae) is “binds”.
